Source: patent US4508712A, “Atrial peptide” (Washington University, priority 1984, dated 1985)
Part of at least one peptide drawing is inferred or uncertain, most often the ends. Positions of bridges follow the written chain, without caps; N, C: chain ends. Residues, ends and D or L forms follow the SMILES beside them.

Key:
Mongrel dogs [1] = test: Diuresis (urine volume) after injection into the renal artery of anesthetized dogs; format: in vivo; conditions: dog, i.a. in the renal artery
Mongrel dogs [2] = test: Renal vasodilation (renal blood flow, electromagnetic flow probe) in anesthetized dogs; format: in vivo; conditions: dog, i.a. in the renal artery

Structure (SMILES)	amount of peptide needed to produce a 200% increase in urine volume (Mongrel dogs [1])	dose needed to produce an increase of 20 ml/min of renal blood flow (Mongrel dogs [2])	increase in urine volume (Mongrel dogs [1]; 30 nmoles)	change in renal blood flow (Mongrel dogs [2]; 30 nmoles)
CC[C@H](C)[C@@H]1NC(=O)[C@H](CCCNC(=N)N)NC(=O)[C@H](CC(=O)O)NC(=O)[C@H]([C@@H](C)CC)NC(=O)[C@H](CCCNC(=N)N)NC(=O)CNC(=O)CNC(=O)[C@H](Cc2ccccc2)NC(=O)[C@@H](NC(=O)[C@H](CO)NC(=O)[C@@H](N)CO)CSSC[C@@H](C(=O)N[C@@H](CC(N)=O)C(=O)N[C@@H](CO)C(=O)N[C@@H](Cc2ccccc2)C(=O)N[C@@H](CCCNC(=N)N)C(=O)N[C@@H](Cc2ccc(O)cc2)C(=O)O)NC(=O)CNC(=O)[C@H](CC(C)C)NC(=O)CNC(=O)[C@H](CO)NC(=O)[C@H](CCC(N)=O)NC(=O)[C@H](C)NC(=O)CNC1=O [atriopeptin III] (H-SSCFGGRIDRIGAQSGLGCNSFRY-OH; disulfide 3-19)	10 nmol	8 nmol	–	–
CC[C@H](C)[C@@H]1NC(=O)[C@H](CCCNC(=N)N)NC(=O)[C@H](CC(=O)O)NC(=O)[C@H]([C@@H](C)CC)NC(=O)[C@H](CCCNC(=N)N)NC(=O)CNC(=O)CNC(=O)[C@H](Cc2ccccc2)NC(=O)[C@@H](NC(=O)[C@H](CO)NC(=O)[C@@H](N)CO)CSSC[C@@H](C(=O)N[C@@H](CC(N)=O)C(=O)N[C@@H](CO)C(=O)N[C@@H](Cc2ccccc2)C(=O)N[C@@H](CCCNC(=N)N)C(=O)O)NC(=O)CNC(=O)[C@H](CC(C)C)NC(=O)CNC(=O)[C@H](CO)NC(=O)[C@H](CCC(N)=O)NC(=O)[C@H](C)NC(=O)CNC1=O [atriopeptin II] (H-SSCFGGRIDRIGAQSGLGCNSFR-OH; disulfide 3-19)	10 nmol	17 nmol	–	–
CC[C@H](C)[C@@H]1NC(=O)[C@H](CCCNC(=N)N)NC(=O)[C@H](CC(=O)O)NC(=O)[C@H]([C@@H](C)CC)NC(=O)[C@H](CCCNC(=N)N)NC(=O)CNC(=O)CNC(=O)[C@H](Cc2ccccc2)NC(=O)[C@@H](NC(=O)[C@H](CO)NC(=O)[C@@H](N)CO)CSSC[C@@H](C(=O)N[C@@H](CC(N)=O)C(=O)N[C@@H](CO)C(=O)O)NC(=O)CNC(=O)[C@H](CC(C)C)NC(=O)CNC(=O)[C@H](CO)NC(=O)[C@H](CCC(N)=O)NC(=O)[C@H](C)NC(=O)CNC1=O [atriopeptin I] (H-SSCFGGRIDRIGAQSGLGCNS-OH; disulfide 3-19)	–	–	50%	6 mL/min
